Values of other authors, collected in patent US20260317546A1, “PRETARGETED BIMODAL IMAGING AGENTS” (KØBENHAVNS UNIVERSITET, priority 2023, published 2026).
Part of at least one peptide drawing is inferred or uncertain, most often the ends.

Test system: urokinase-type plasminogen activator receptor (uPAR)
Details: background statement; cited from earlier work

In the case of `CC(C)C[C@H](NC(=O)[C@H](Cc1ccc(O)cc1)NC(=O)[C@@H](CCCNC(=N)N)NC(=O)[C@@H](CO)NC(=O)[C@H](Cc1ccccc1)NC(=O)[C@H](CC1CCCCC1)NC(=O)[C@@H](N)CC(=O)O)C(=O)N[C@@H](Cc1c[nH]c2ccccc12)C(=O)N[C@@H](CO)C(=O)O` [AE105], the “binding affinity to uPAR” value is given as “high binding affinity”.
